PubChem BioAssay AID1259284 | Sanger Institute, 2017
This is an unselected part of 794 reagents. 16 of them (2%) were called active. 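Calls concern knock-down without drug only; drug synergy was judged apart, with scores above 0.15 taken as synergy.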 Entries without a mark were called inactive. Viability is capped at 1. Further read-outs or replicates are left out here. Not stated in the record: the amount of reagent, the time to read-out.

Test: 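Kinase knock-downs that cut colorectal cancer cell growth alone or with targeted drugs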 (primary screen)
Cell system: SW48 human colorectal cancer cells
Reagents: siRNA pool against human genes
Challenge: anchor drug BYL719 at 1 µM, cetuximab at 5 µg/ml or trametinib at 10 nM, or DMSO vehicle alone
Read-out: 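Cell viability relative to non-targeting pool wells, replicate mean, with robust z-scores and drug synergy scores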
Scale: robust z-score, no drug: higher = more cells survive knock-down; viability, no drug: higher = more viable cells
Call rule: 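Called essential when the robust z-score of viability without drug falls below -3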
Calls: active = essential without drug; inactive = no change without drug

no.	Target gene	robust z-score, no drug	viability, no drug (fraction of control)
1	NRBP2	-0.512	0.919
2	TP53	0.426	1
3	CDKN2C	0.426	1
4	CAMKK1	0.426	1
5	EPHA1	0.426	1
6	BCKDK	0.426	1
7	MAPK9	0.426	1
8	DGKD	0.426	1
9	IRAK2	0.426	1
10	CRIM1	0.426	1
11	GSK3B	0.426	1

Reformatted: results already given
Target gene | robust z-score, no drug | viability, no drug (fraction of control)
CAMKK1 | 0.426 | 1
EPHA1 | 0.426 | 1

More records follow.
no.	Target gene	robust z-score, no drug	viability, no drug (fraction of control)
12	MPP3	-2.06	0.787
13	DNMT3A	0.426	1
14	NEK7	0.426	1
15	CALM1	0.426	1
16	IPMK	0.154	0.977
17	NAGK	-1.04	0.875
18	ADCK5	-0.349	0.933
19	MAST1	0.426	1
20	MAP3K15	0.426	1
